{"source": "PubChem BioAssay AID1259254 (NCATS, 2017)", "screen": "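Finding genes that stop cells copying their DNA twice in one cycle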 (primary screen)", "cells": "human HCT116 colorectal cancer cells", "reagent": "single siRNA against human genes", "timing": "3 days", "detection": "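Nuclei stained with Hoechst and imaged; cell-cycle phase assigned by DNA content; G2 share scaled per plate, non-targeting siRNA 0%, GMNN siRNA 100%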", "direction": "G2 robust z-score and G2 cells, % of GMNN control: higher = more G2 cells, more excess DNA replication", "rule for the call": "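Active siRNAs have a G2 robust z of 5 or more median absolute deviations over the median, which in these data means about 38% or higher of GMNN control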", "note": "Shown is a random part of about 59,000 deposited reagents. Over the whole deposit, about 1,550 (2.6%) were called active. 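G2 share is only a proxy for re-replication; each gene was hit by three separate siRNAs, and active genes were retested.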 Reagents against one gene are numbered here. Further read-outs or replicates are left out here. Not given: the amount of reagent."}
{"gene symbol":"RPUSD3 (RNA pseudouridine synthase D3)","siRNA no.":1,"G2 robust z-score":-0.593,"G2 cells, % of GMNN control":-1.2,"Outcome":"inactive"}
{"gene symbol":"RPUSD3 (RNA pseudouridine synthase D3)","siRNA no.":2,"G2 robust z-score":0.934,"G2 cells, % of GMNN control":9.54,"Outcome":"inactive"}
{"gene symbol":"RPUSD3 (RNA pseudouridine synthase D3)","siRNA no.":3,"G2 robust z-score":-0.0127,"G2 cells, % of GMNN control":2.88,"Outcome":"inactive"}
{"gene symbol":"FAIM2 (Fas apoptotic inhibitory molecule 2)","siRNA no.":1,"G2 robust z-score":-0.188,"G2 cells, % of GMNN control":1.64,"Outcome":"inactive"}
{"gene symbol":"FAIM2 (Fas apoptotic inhibitory molecule 2)","siRNA no.":2,"G2 robust z-score":1.67,"G2 cells, % of GMNN control":14.7,"Outcome":"inactive"}
{"gene symbol":"FAIM2 (Fas apoptotic inhibitory molecule 2)","siRNA no.":3,"G2 robust z-score":2.27,"G2 cells, % of GMNN control":18.9,"Outcome":"inactive"}
{"gene symbol":"DOLPP1 (dolichyldiphosphatase 1)","siRNA no.":1,"G2 robust z-score":-0.65,"G2 cells, % of GMNN control":-1.6,"Outcome":"inactive"}
{"gene symbol":"DOLPP1 (dolichyldiphosphatase 1)","siRNA no.":2,"G2 robust z-score":-1.22,"G2 cells, % of GMNN control":-5.6,"Outcome":"inactive"}
{"gene symbol":"DOLPP1 (dolichyldiphosphatase 1)","siRNA no.":3,"G2 robust z-score":-0.604,"G2 cells, % of GMNN control":-1.28,"Outcome":"inactive"}
{"gene symbol":"ASIP (agouti signaling protein)","siRNA no.":1,"G2 robust z-score":3.72,"G2 cells, % of GMNN control":29.2,"Outcome":"inactive"}
{"gene symbol":"ASIP (agouti signaling protein)","siRNA no.":2,"G2 robust z-score":-0.102,"G2 cells, % of GMNN control":2.25,"Outcome":"inactive"}
{"gene symbol":"ASIP (agouti signaling protein)","siRNA no.":3,"G2 robust z-score":0.27,"G2 cells, % of GMNN control":4.87,"Outcome":"inactive"}
